Experimental data: publication PMC7819943, “Rice protein-binding microarrays: a tool to detect cis-acting elements near promoter regions in rice”
The list shows a part of the results.

molecular target: T1, OsSMF1 (Oryza sativa, UniProt Q6ZLB0 1-436); assay: protein-binding microarray (RPBM); PBS, 2% BSA, 51.3 ng/ul salmon testes DNA, 50 uM zinc acetate, 200 nM TF, 25 C, 1 h; high values mean tight binding; conditions: protein: recombinant; tags: N-terminal polyhistidine and DsRed monomer fusion (pET32a); chain copies: 2; label: CyDye5-dUTP incorporated in the synthesized complementary strand; 3' TTTTT single-stranded linker to array surface; dsDNA, one strand shown
T1 sequence: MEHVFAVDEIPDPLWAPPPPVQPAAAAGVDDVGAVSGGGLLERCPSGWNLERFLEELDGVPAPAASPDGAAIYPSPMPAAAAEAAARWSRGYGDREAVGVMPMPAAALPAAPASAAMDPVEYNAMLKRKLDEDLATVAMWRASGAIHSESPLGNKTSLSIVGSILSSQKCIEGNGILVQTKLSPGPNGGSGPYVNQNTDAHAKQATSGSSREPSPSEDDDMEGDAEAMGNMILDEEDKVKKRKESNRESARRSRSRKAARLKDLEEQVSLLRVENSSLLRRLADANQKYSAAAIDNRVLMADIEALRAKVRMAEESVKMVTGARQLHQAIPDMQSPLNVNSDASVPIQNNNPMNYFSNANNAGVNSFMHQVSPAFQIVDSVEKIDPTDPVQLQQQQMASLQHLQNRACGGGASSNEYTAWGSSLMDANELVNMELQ
Method in brief: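 Binding signal is reported as fluorescence intensity per feature (arbitrary units) from an Axon 4000B scanner. Incubation used 200 nM of each Ni–NTA-purified, N-terminally polyhistidine- and DsRed-fused transcription factor from E. coli BL21-CodonPlus on a double-stranded custom Agilent array for 1 h at 25 °C, with 50 µM zinc acetate in the buffer, followed by washing.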

Row | Sequence | binding signal
1 | GCGTAAACCCTAGCGTAGGCGCGTAGCTGGCATCTCCGTCCGGAGTCACCTAGTGCAG | 4630 fluorescence intensity (a.u.)
2 | ATTTGAATGAAATAGTCTGACGTTGATTACAGGCACGCGCCGGAGTCACCTAGTGCAG | 3650 fluorescence intensity (a.u.)
3 | TAGTTGGCTTCCATTATCTGATTCGTGATACCTTGCGTGTCGGAGTCACCTAGTGCAG | 4440 fluorescence intensity (a.u.)
4 | CACACACTGTTAACTTGAACTGACTCAGACAAGGTGCACCCGGAGTCACCTAGTGCAG | 3690 fluorescence intensity (a.u.)
5 | TTTTCAGACGTTTTGCAATAGAGAATGTCAATGTCCATTGCGGAGTCACCTAGTGCAG | 13600 fluorescence intensity (a.u.)
6 | ATTGCAACCGGAGAGCCTGACCAAAGAAATTCAGATCCTTCGGAGTCACCTAGTGCAG | 3200 fluorescence intensity (a.u.)
7 | ATATATATATATATATATATATAAGTTTCCACGAATAAGGCGGAGTCACCTAGTGCAG | 3200 fluorescence intensity (a.u.)
8 | GGTGGACTCCAGTGGTTGCCTTGCATACTTAGCTTGCCTTCGGAGTCACCTAGTGCAG | 3460 fluorescence intensity (a.u.)
9 | TCTCAGCCATTCGATCGGTGGATGAGATCGCATATGAACCCGGAGTCACCTAGTGCAG | 24300 fluorescence intensity (a.u.)
10 | ATCTAGACACGCGCGCGCGCGCGCACATATATATATATATCGGAGTCACCTAGTGCAG | 42600 fluorescence intensity (a.u.)
11 | GTCCGGCGAGTTCACCATCACCCTCGACCTCGAGACCAAGCGGAGTCACCTAGTGCAG | 17000 fluorescence intensity (a.u.)
12 | GCCGCCGTCCACGGCAGCCTCTACGCGTCGCTGCGCACCACGGAGTCACCTAGTGCAG | 4310 fluorescence intensity (a.u.)
13 | ACGTGGTTCTCTGCTGATAATGTCAGAATGATTCATGAGCCGGAGTCACCTAGTGCAG | 3790 fluorescence intensity (a.u.)
14 | AGATAATTGTGTCATCAGGAGGCCATGGCCATGATAGCAACGGAGTCACCTAGTGCAG | 3540 fluorescence intensity (a.u.)
15 | TTCGCTAACGCCGCGCGTCACGTAGACACGTACTACTAGCCGGAGTCACCTAGTGCAG | 49600 fluorescence intensity (a.u.)
16 | GCCGCCTCCGTCACGGGGACCCGCCGCCTCTGCATTCTCTCGGAGTCACCTAGTGCAG | 3150 fluorescence intensity (a.u.)
17 | TACAGGACACGTCAGTCGATCCCCACAGTCTTCTTCCTCTCGGAGTCACCTAGTGCAG | 16600 fluorescence intensity (a.u.)
18 | CAACCATGTGACAGCTAGATCCGTGTGATTTACCAGGTCACGGAGTCACCTAGTGCAG | 4640 fluorescence intensity (a.u.)
19 | TGAACCAGCGGAGTCATACAATTAGTTTCTCCCAACAGTGCGGAGTCACCTAGTGCAG | 3190 fluorescence intensity (a.u.)
20 | ATCTCATTGTTTGTTACCAAATCCGGTTTACACCATTTTACGGAGTCACCTAGTGCAG | 4120 fluorescence intensity (a.u.)
21 | TCATGTATTACTGCATTTCATCAATGCGTCACATGCACGGCGGAGTCACCTAGTGCAG | 5860 fluorescence intensity (a.u.)
22 | TATAAGGACCCGACACACAACATCTTTGACGTGTCCCCGTCGGAGTCACCTAGTGCAG | 8620 fluorescence intensity (a.u.)
23 | AATAAATACGCCCACTGACGTGTGGGCCATACCCTCCTCCCGGAGTCACCTAGTGCAG | 7770 fluorescence intensity (a.u.)
24 | GGTGGGTGTGTGCTTGTTTCGGCGTGTGATTTGGGCGGAGCGGAGTCACCTAGTGCAG | 3230 fluorescence intensity (a.u.)
25 | CCACTAGCGCAGTAGCGCCTCCATGTATACGAGTGGTGTGCGGAGTCACCTAGTGCAG | 3180 fluorescence intensity (a.u.)
26 | GGGATTGGGGTAGAGCCAGCTGACGAGGTGTAATCAGGATCGGAGTCACCTAGTGCAG | 3140 fluorescence intensity (a.u.)
27 | AGCTGCCTCTGCAACCCACGTCAAGAGCTCCCCACATCACCGGAGTCACCTAGTGCAG | 4250 fluorescence intensity (a.u.)

Row | Sequence | binding signal
28 | CCAGCCTCCACTGTGCTCCTCGTGTCCGCCGTTCTGATCTCGGAGTCACCTAGTGCAG | 3200 fluorescence intensity (a.u.)
29 | CACCACGTCTCGCGCCGCAGCGTATGCACACCTCCTCAGCCGGAGTCACCTAGTGCAG | 3970 fluorescence intensity (a.u.)
30 | TTGAGCTCGATCTGACACGAAGGCACGTGGCCAACTAAGGCGGAGTCACCTAGTGCAG | 6540 fluorescence intensity (a.u.)
31 | CAAATATACATACATTCATATATAAACACGCTAACACGCACGGAGTCACCTAGTGCAG | 3420 fluorescence intensity (a.u.)
32 | CACTCCACCGCCGACGCCGTGCCACCGCTCCTACACAGACCGGAGTCACCTAGTGCAG | 3650 fluorescence intensity (a.u.)
33 | ATGTGCTTATAATGGTAGGTTGTACGTACGTGCGTTTGTGCGGAGTCACCTAGTGCAG | 3700 fluorescence intensity (a.u.)
34 | AAGGGGAGGGGAGAGAGGAGTGGAGTGGGGCTCGGATTAGCGGAGTCACCTAGTGCAG | 3920 fluorescence intensity (a.u.)
35 | GCACGTTGTAGTAGATATTTTCCTTTCTCTGCTTACATAACGGAGTCACCTAGTGCAG | 3170 fluorescence intensity (a.u.)
36 | AGATGCTGGTGTCATAATATGTGCTAGGCCCGTCACCCTGCGGAGTCACCTAGTGCAG | 4400 fluorescence intensity (a.u.)
37 | AGAAGGAATGCACTAGGATATTATCTTTTCGCTTATACTTCGGAGTCACCTAGTGCAG | 33200 fluorescence intensity (a.u.)
38 | TTTCCTATTGTAAAGTTCAAGAAATGCAAGGAATAACCATCGGAGTCACCTAGTGCAG | 27000 fluorescence intensity (a.u.)
39 | GCATTTGCCACCTCGACCAAGAAGCCCATTGACGGGGACGCGGAGTCACCTAGTGCAG | 3720 fluorescence intensity (a.u.)
40 | GTAATATGCATAATAGTCATCACATGATTGATATCTCGTCCGGAGTCACCTAGTGCAG | 3470 fluorescence intensity (a.u.)
41 | CTCAAAACCACACCGTTAAATGTTTTACCCTACTCTCGTACGGAGTCACCTAGTGCAG | 39200 fluorescence intensity (a.u.)
42 | AATAGCAGCTGCCCTGGTGCTGCTTCTCACGTTTTAGAGCCGGAGTCACCTAGTGCAG | 16000 fluorescence intensity (a.u.)
43 | AATGGACCACCGTTAGTCCACCAGTCAGCCAACCAATGGCCGGAGTCACCTAGTGCAG | 3360 fluorescence intensity (a.u.)
44 | ATCGGTCCTACACCTCCTAGCCAACTGCAGACTGTCGAGACGGAGTCACCTAGTGCAG | 3380 fluorescence intensity (a.u.)
45 | CGGCCGGCGGAGGCGGAGGCCGTGGCGGCGGCGGCGGGGTCGGAGTCACCTAGTGCAG | 4010 fluorescence intensity (a.u.)
46 | GCTGACCCGTCACTGACAGGGTGGGCCCCACGCCCCGGCGCGGAGTCACCTAGTGCAG | 4400 fluorescence intensity (a.u.)
47 | AATTGAGAGGGCATCATCAGATTAAAGCTATGGCATGGCGCGGAGTCACCTAGTGCAG | 26200 fluorescence intensity (a.u.)
48 | AGACAACACTTGCCCATCTCGGCATCGTGACGCGCCGCCGCGGAGTCACCTAGTGCAG | 3410 fluorescence intensity (a.u.)
49 | AGGCGCCACGTGGACATCGAGATGGTGCGGCGGAGGCTGGCGGAGTCACCTAGTGCAG | 16800 fluorescence intensity (a.u.)
50 | ACCTACGCCAGCCACCACGACCATCCATCCTCTGCTGCACCGGAGTCACCTAGTGCAG | 3630 fluorescence intensity (a.u.)
51 | TCACGCCATCCCGTGTGATTCAGTCGATCGGCCAGCGTGGCGGAGTCACCTAGTGCAG | 6730 fluorescence intensity (a.u.)
52 | ACTACAATATTAATGTATGGTCCTACCTGTCATACACACACGGAGTCACCTAGTGCAG | 4650 fluorescence intensity (a.u.)
53 | ATCTCTCCTCTAGGCGTCTTTTGGTATATAGGAGTATCTCCGGAGTCACCTAGTGCAG | 25400 fluorescence intensity (a.u.)
54 | GGCAAATGGGGCCTCCACGTGCTCTTATCCTCATGCAAGTCGGAGTCACCTAGTGCAG | 5300 fluorescence intensity (a.u.)

A second format for part of the listing above.
Row	Sequence	binding signal
27	AGCTGCCTCTGCAACCCACGTCAAGAGCTCCCCACATCACCGGAGTCACCTAGTGCAG	4250 fluorescence intensity (a.u.)
28	CCAGCCTCCACTGTGCTCCTCGTGTCCGCCGTTCTGATCTCGGAGTCACCTAGTGCAG	3200 fluorescence intensity (a.u.)
29	CACCACGTCTCGCGCCGCAGCGTATGCACACCTCCTCAGCCGGAGTCACCTAGTGCAG	3970 fluorescence intensity (a.u.)
30	TTGAGCTCGATCTGACACGAAGGCACGTGGCCAACTAAGGCGGAGTCACCTAGTGCAG	6540 fluorescence intensity (a.u.)
31	CAAATATACATACATTCATATATAAACACGCTAACACGCACGGAGTCACCTAGTGCAG	3420 fluorescence intensity (a.u.)
32	CACTCCACCGCCGACGCCGTGCCACCGCTCCTACACAGACCGGAGTCACCTAGTGCAG	3650 fluorescence intensity (a.u.)
33	ATGTGCTTATAATGGTAGGTTGTACGTACGTGCGTTTGTGCGGAGTCACCTAGTGCAG	3700 fluorescence intensity (a.u.)
34	AAGGGGAGGGGAGAGAGGAGTGGAGTGGGGCTCGGATTAGCGGAGTCACCTAGTGCAG	3920 fluorescence intensity (a.u.)
35	GCACGTTGTAGTAGATATTTTCCTTTCTCTGCTTACATAACGGAGTCACCTAGTGCAG	3170 fluorescence intensity (a.u.)
36	AGATGCTGGTGTCATAATATGTGCTAGGCCCGTCACCCTGCGGAGTCACCTAGTGCAG	4400 fluorescence intensity (a.u.)
37	AGAAGGAATGCACTAGGATATTATCTTTTCGCTTATACTTCGGAGTCACCTAGTGCAG	33200 fluorescence intensity (a.u.)
38	TTTCCTATTGTAAAGTTCAAGAAATGCAAGGAATAACCATCGGAGTCACCTAGTGCAG	27000 fluorescence intensity (a.u.)
39	GCATTTGCCACCTCGACCAAGAAGCCCATTGACGGGGACGCGGAGTCACCTAGTGCAG	3720 fluorescence intensity (a.u.)
40	GTAATATGCATAATAGTCATCACATGATTGATATCTCGTCCGGAGTCACCTAGTGCAG	3470 fluorescence intensity (a.u.)
41	CTCAAAACCACACCGTTAAATGTTTTACCCTACTCTCGTACGGAGTCACCTAGTGCAG	39200 fluorescence intensity (a.u.)
42	AATAGCAGCTGCCCTGGTGCTGCTTCTCACGTTTTAGAGCCGGAGTCACCTAGTGCAG	16000 fluorescence intensity (a.u.)
